In PMC8716806:
Where two headings read alike, the source gives them in different places. These are yes or no findings as the source states them, for the method shown. Some entries that bind do so weakly or less than the wild type.

Protein sequences, listed by entry. Tags and fused reporters are not part of them.
UniProt P14565: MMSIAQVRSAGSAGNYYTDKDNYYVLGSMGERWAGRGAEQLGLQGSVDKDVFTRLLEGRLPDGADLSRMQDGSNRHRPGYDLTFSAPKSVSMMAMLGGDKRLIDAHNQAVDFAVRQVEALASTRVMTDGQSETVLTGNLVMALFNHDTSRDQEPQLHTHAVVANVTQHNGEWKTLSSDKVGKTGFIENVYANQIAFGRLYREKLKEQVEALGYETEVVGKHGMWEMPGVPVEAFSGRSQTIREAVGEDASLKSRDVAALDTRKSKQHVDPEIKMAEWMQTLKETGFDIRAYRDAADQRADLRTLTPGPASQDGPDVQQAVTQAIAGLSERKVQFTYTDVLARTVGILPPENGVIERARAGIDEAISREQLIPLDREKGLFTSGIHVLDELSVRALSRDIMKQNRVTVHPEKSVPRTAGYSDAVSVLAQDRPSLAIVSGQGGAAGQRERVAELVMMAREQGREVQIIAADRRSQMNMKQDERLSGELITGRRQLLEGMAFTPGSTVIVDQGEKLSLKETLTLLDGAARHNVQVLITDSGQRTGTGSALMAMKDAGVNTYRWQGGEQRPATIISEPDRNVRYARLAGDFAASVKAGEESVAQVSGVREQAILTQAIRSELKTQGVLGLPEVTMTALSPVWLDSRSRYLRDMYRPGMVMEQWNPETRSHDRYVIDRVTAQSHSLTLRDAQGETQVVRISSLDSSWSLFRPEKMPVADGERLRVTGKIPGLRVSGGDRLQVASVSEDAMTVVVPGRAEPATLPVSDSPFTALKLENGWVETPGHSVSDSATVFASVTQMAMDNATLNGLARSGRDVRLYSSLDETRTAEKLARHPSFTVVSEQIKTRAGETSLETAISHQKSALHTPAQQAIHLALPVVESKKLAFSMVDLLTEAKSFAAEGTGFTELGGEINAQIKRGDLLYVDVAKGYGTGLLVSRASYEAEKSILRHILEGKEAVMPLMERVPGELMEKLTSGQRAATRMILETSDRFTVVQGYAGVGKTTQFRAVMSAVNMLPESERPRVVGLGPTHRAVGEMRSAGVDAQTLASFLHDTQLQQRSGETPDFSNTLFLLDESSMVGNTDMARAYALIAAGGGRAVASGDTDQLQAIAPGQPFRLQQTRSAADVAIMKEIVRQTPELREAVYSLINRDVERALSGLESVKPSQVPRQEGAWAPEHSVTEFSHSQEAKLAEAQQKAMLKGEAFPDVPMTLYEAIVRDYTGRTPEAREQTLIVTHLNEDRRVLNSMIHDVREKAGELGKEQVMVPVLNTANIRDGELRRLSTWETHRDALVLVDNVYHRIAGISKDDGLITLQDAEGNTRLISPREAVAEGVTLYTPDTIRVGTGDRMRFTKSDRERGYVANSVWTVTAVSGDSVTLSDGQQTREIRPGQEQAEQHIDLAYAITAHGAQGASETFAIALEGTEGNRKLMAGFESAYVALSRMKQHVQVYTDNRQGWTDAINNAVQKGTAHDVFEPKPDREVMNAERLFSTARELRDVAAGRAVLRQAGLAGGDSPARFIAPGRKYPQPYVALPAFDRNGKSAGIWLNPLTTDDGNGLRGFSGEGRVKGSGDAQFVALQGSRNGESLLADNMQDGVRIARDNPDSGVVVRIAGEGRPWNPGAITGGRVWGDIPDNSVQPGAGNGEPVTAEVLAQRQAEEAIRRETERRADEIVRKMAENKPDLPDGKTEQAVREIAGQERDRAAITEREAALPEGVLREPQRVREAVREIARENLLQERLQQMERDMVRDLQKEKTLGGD

B1: SopA, plasmid partitioning protein of F-plasmid (Walker-type ATPase) (protein, UniProt P62556 1-388)
chain: MKLMETLNQCINAGHEMTKAIAIAQFNDDSPEARKITRRWRIGEAADLVGVSSQAIRDAEKAGRLPHPDMEIRGRVEQRVGYTIEQINHMRDVFGTRLRRAEDVFPPVIGVAAHKGGVYKTSVSVHLAQDLALKGLRVLLVEGNDPQGTASMYHGWVPDLHIHAEDTLLPFYLGEKDDVTYAIKPTCWPGLDIIPSCLALHRIETELMGKFDEGKLPTDPHLMLRLAIETVAHDYDVIVIDSAPNLGIGTINVVCAADVLIVPTPAELFDYTSALQFFDMLRDLLKNVDLKGFEPDVRILLTKYSNSNGSQSPWMEEQIRDAWGSMVLKNVVRETDEVGKGQIRMRTVFEQAIDQRSSTGAWRNALSIWEPVCNEIFDRLIKPRWEIR
B2: SopB, plasmid partitioning protein of F-plasmid (DNA-binding partner) (protein, UniProt P62558 1-323)
chain: MKRAPVIPKHTLNTQPVEDTSLSTPAAPMVDSLIARVGVMARGNAITLPVCGRDVKFTLEVLRGDSVEKTSRVWSGNERDQELLTEDALDDLIPSFLLTGQQTPAFGRRVSGVIEIADGSRRRKAAALTESDYRVLVGELDDEQMAALSRLGNDYRPTSAYERGQRYASRLQNEFAGNISALADAENISRKIITRCINTAKLPKSVVALFSHPGELSARSGDALQKAFTDKEELLKQQASNLHEQKKAGVIFEAEEVITLLTSVLKTSSASRTSLSSRHQFAPGATVLYKGDKMVLNLDRSRVPTECIEKIEAILKELEKPAP

Experiments:
Test in all cases: two-hybrid; bacterial two-hybrid (BACTH): T18 and T25 fragments of B. pertussis adenylate cyclase fused to the N- or C-terminus; plasmids co-transformed into E. coli BTH101; LB agar with 0.5 mM IPTG and 40 ug/ml X-gal, 40-48 h at 30 C, blue colony colour; beta-galactosidase assay (Miller) of overnight cultures at 30 C for some pairs
[1] = biological target: TraI from F-plasmid (relaxase) (E. coli F-plasmid) (UniProt P14565)
[2] = biological target: TraI from F-plasmid (relaxase) (E. coli F-plasmid) (UniProt P14565); remark: listed apart in the source
[3] = biological target: SopA, plasmid partitioning protein of F-plasmid (Walker-type ATPase) (E. coli F-plasmid) (UniProt P62556)
[4] = biological target: T1, SopB, plasmid partitioning protein of F-plasmid (DNA-binding partner) (E. coli F-plasmid) (UniProt P62558)
T1 sequence: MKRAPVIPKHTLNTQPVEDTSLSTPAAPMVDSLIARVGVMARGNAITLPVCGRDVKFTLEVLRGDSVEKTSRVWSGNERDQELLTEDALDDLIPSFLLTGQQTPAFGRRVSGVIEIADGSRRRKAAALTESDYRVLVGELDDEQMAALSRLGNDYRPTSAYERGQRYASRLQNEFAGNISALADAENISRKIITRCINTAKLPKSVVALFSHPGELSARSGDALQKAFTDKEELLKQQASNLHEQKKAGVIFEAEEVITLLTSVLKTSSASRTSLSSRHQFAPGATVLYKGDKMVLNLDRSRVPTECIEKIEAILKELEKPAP

| Molecule | binding [1] | binding [2] | binding [3] | binding [4] |
| --- | --- | --- | --- | --- |
| TraI from F-plasmid (relaxase) (from UniProt P14565 1-1756) | binds weakly | – | – | – |
| B1 | – | binds weakly | binds | binds |
| B2 | – | – | – | binds |
